According to paper PMC3629710:
These are yes or no findings as the source states them, for the method shown. A result given as binding can be weak or reduced; the word gives no strength.

By UniProt entry, the sequences of proteins in these tests, tags left out. Where a name states a change or a piece, a line headed by the entry shows the natural chain unless it says otherwise. Residues count along the entry.
UniProt Q9NYB9, residues 451-510: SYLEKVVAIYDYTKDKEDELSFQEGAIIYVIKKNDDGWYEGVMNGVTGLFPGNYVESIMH
UniProt P00519, residues 61-121: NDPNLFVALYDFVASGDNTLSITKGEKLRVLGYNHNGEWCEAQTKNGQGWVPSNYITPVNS
UniProt P51451, residues 58-118: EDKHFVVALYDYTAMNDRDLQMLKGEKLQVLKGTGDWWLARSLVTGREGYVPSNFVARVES
UniProt O14936, residues 612-682: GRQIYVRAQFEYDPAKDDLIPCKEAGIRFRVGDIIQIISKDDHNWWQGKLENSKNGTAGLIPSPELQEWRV
UniProt P19878: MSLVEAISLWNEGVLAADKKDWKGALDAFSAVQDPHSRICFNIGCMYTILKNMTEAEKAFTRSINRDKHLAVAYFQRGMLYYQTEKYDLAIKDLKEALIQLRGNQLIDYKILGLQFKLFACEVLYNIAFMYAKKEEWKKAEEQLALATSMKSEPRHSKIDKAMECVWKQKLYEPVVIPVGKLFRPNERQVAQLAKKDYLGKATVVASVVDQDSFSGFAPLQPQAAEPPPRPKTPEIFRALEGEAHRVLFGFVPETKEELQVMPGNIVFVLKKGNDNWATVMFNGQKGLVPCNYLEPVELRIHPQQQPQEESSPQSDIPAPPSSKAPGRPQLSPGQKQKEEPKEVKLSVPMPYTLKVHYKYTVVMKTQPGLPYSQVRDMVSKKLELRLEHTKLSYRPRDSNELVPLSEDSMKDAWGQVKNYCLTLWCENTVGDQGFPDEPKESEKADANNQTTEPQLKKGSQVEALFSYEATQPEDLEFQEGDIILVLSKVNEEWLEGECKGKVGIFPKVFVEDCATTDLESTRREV
UniProt O00459, residues 4-80: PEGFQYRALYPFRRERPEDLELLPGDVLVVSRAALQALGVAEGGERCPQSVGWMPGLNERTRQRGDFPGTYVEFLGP
UniProt P27986, residues 3-79: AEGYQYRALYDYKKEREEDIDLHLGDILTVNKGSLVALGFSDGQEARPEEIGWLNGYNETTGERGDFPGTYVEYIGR
UniProt P78352, residues 428-498: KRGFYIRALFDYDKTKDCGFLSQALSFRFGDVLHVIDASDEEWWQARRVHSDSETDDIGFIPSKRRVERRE
UniProt Q99961, residues 306-365: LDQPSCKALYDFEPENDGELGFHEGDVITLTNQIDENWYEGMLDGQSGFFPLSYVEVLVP
UniProt Q9Y5X1, residues 1-62: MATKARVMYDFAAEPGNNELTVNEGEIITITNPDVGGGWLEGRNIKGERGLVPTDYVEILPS
UniProt Q92783, residues 210-269: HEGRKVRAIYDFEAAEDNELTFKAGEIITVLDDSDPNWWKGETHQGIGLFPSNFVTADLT
UniProt Q9UKW4: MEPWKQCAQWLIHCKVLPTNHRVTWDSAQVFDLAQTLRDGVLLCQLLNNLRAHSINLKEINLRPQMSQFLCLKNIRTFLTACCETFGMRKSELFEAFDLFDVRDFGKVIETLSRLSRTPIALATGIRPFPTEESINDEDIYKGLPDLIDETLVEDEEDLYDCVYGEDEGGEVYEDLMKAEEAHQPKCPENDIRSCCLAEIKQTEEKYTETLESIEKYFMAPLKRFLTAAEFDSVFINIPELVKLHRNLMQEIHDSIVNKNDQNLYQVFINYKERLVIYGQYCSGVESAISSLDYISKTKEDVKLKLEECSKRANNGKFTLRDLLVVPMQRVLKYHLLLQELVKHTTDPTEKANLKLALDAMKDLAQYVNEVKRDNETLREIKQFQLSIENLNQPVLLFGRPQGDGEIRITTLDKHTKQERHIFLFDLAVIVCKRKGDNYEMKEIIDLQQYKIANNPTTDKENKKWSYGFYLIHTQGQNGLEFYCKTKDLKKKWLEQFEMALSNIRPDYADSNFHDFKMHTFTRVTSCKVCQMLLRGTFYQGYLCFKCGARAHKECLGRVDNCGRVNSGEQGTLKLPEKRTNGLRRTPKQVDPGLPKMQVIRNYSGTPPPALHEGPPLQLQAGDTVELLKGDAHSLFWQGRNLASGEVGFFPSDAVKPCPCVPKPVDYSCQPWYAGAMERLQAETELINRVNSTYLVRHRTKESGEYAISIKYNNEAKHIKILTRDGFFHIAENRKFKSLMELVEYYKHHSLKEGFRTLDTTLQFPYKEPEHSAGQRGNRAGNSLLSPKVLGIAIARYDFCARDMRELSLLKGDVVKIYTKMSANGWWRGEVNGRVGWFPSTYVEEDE
UniProt O60504: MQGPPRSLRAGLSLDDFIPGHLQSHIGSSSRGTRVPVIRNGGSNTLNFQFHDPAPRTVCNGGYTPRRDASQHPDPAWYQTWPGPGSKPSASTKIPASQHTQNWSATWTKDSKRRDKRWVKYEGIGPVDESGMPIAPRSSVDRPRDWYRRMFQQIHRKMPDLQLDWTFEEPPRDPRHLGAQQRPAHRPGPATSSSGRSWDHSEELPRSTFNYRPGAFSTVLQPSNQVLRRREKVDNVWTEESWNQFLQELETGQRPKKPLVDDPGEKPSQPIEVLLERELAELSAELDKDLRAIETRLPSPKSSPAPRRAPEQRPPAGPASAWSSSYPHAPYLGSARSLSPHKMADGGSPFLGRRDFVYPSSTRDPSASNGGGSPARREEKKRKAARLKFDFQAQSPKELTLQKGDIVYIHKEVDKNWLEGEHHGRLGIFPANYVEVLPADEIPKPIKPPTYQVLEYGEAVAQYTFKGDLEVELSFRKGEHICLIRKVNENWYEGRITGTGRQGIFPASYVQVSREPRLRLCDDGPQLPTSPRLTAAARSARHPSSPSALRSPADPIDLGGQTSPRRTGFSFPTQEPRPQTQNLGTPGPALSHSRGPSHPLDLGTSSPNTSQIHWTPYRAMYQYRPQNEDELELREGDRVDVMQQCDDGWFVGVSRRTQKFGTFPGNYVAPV
UniProt P07947, residues 91-152: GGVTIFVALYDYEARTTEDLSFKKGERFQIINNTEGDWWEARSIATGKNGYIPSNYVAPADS
UniProt Q14247, residues 492-550: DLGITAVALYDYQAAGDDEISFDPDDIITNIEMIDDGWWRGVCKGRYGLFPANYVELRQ
UniProt P56945: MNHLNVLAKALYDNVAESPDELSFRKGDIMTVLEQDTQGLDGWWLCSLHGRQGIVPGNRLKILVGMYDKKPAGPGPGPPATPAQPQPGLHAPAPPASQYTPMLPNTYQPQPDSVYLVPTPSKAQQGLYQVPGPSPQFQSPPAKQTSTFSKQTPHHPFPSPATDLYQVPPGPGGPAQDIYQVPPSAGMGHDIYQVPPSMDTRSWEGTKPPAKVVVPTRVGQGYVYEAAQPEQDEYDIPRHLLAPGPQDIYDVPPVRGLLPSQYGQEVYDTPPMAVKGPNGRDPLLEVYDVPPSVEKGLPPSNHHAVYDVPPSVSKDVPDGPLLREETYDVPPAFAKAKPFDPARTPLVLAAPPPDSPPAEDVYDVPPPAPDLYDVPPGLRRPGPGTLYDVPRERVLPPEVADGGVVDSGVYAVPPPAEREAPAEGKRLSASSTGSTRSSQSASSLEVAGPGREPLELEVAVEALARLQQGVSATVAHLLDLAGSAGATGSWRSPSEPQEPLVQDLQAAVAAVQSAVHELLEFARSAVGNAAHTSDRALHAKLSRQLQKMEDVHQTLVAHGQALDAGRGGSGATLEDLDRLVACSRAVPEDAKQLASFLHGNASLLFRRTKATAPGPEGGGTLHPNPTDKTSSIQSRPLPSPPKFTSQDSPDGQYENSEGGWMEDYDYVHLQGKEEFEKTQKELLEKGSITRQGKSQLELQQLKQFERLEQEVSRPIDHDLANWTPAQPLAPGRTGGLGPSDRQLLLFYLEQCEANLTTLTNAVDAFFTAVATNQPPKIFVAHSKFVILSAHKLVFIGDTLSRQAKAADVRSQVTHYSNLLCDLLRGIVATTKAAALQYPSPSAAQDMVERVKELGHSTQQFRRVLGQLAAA

Columns and labels:
Test in all cases: peptide or protein array; Panomics SH3 Domain Arrays I and II: immobilised SH3 domains fused to GST, hybridised with purified N-terminally His-tagged SH3-b domain, detected with peroxidase-conjugated anti-His antibody and ECL; both purified
[1] = molecular target: Abi2-SH3 domain (AbI2B) (SH3 domain array) (UniProt Q9NYB9)
[2] = molecular target: Abl SH3 domain (SH3 domain array) (UniProt P00519)
[3] = molecular target: T1, BIN1 SH3 domain (SH3 domain array) (UniProt O00499)
T1 sequence: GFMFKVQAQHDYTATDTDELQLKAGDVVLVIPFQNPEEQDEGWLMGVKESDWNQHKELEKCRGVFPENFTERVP

[4] = molecular target: BLK SH3 domain (SH3 domain array) (UniProt P51451)
[5] = molecular target: CSKP SH3 domain (SH3 domain array) (UniProt O14936)
[6] = molecular target: T2, EFS SH3 domain (SH3 domain array) (UniProt O43281)
T2 sequence: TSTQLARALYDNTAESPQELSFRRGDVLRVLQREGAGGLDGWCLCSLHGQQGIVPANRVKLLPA

[7] = molecular target: T3, NE-DLG SH3 domain (SH3 domain array) (UniProt Q92796)
T3 sequence: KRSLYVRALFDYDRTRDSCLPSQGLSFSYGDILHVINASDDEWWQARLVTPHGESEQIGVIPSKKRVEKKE

[8] = molecular target: NOF2-D1 SH3 domain (SH3 domain arrays) (UniProt P19878)
[9] = molecular target: PI3-ß SH3 domain (SH3 domain array) (UniProt O00459)
[10] = molecular target: PI3α SH3 domain (SH3 domain array) (UniProt P27986)
[11] = molecular target: PSD95 SH3 domain (SH3 domain array) (UniProt P78352)
[12] = molecular target: T4, RasGAP SH3 domain (SH3 domain array) (UniProt P20936)
T4 sequence: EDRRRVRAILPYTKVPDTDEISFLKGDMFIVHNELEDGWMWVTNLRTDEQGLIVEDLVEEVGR

[13] = molecular target: SH3-1 (SH3-containing GRB2-like protein 1) SH3 domain (SH3 domain array) (UniProt Q99961)
[14] = molecular target: SNX9 SH3 domain (SH3 domain array) (UniProt Q9Y5X1)
[15] = molecular target: Stam SH3 domain (SH3 domain array) (UniProt Q92783)
[16] = molecular target: VAV3-D2 SH3 domain (SH3 domain array) (UniProt Q9UKW4)
[17] = molecular target: VINE-D3 SH3 domain (SH3 domain array) (UniProt O60504)
[18] = molecular target: Yes1 SH3 domain (SH3 domain array) (UniProt P07947)
[19] = molecular target: cortactin SH3 domain (SH3 domain array) (UniProt Q14247)

- binding [1]: binds
- binding [2]: binds weakly
- binding [3]: binds weakly
- binding [4]: binds weakly
- binding [5]: binds weakly
- binding [6]: binds weakly
- binding [7]: binds
- binding [8]: binds
- binding [9]: binds
- binding [10]: binds
- binding [11]: binds
- binding [12]: binds weakly
- binding [13]: binds
- binding [14]: binds
- binding [15]: binds weakly
- binding [16]: binds weakly
- binding [17]: binds
- binding [18]: binds
- binding [19]: binds
Substance: His-tagged-p130Cas-P2 domain (from UniProt P56945) (domain or fragment)
